Results on one compound are retold here after ChEMBL document CHEMBL4622849, “Discovery of ethyl ketone-based HDACs 1, 2, and 3 selective inhibitors for HIV latency reactivation” (Bioorg Med Chem Lett, 2020).

In the assay the test system is Human immunodeficiency virus. Briefly: microbe, parasite or virus in culture. Type of assay: functional, organism-based. Conditions: Human immunodeficiency virus 1, 2C4.

Molecules are shown by their SMILES.

On to `Nc1ccc(-c2cccs2)cc1NC(=O)c1ccc(N2CCC3(CC2)CNC(=O)O3)nc1`, for which it took 15.7 µM to reach a half-maximal effect (EC50).
